Microarray screen: hit calls

Calls as published in the ROBIN set (doi:10.1002/anie.202211358).

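Compounds were printed on reactive glass slides in duplicate spots, a dye-labelled oligonucleotide was laid over them, and the fluorescence left after washing was read. The data file lists only calls. An earlier report of the laboratory on the PreQ1, TPP and SAM-II riboswitches (doi:10.1038/s41467-019-09493-3) used 1 µM RNA for 2 h and required a mean Z-score above 3 (spot signal-to-noise against the whole library), a score well above that on a control array, and duplicate spots agreeing (coefficient of variation under 100); it then also set aside compounds that hit other targets, which this list keeps. The cut-offs behind this list may differ. These are primary screening calls, not affinities; a compound without a hit may have attached poorly or may still bind in solution.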 “hit” means called a hit, “none” means screened and not called a hit. This is an unselected part of the compounds tested. A target missing from an entry has no call listed here.

Targets (5′ to 3′):
SAM-II: SAM-II riboswitch RNA pseudoknot, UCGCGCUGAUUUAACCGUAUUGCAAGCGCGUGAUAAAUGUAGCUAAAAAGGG. Hit rate about 1% of about 21,000 compounds.
PreQ1: PreQ1 riboswitch RNA pseudoknot, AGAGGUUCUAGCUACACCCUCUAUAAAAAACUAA. From B. subtilis. Hit rate about 0.7% of about 24,000 compounds.

{"smiles": "Cc1cccc(-n2cc(CN(C)CC3(CO)CC3)cn2)c1", "SAM-II": "none", "PreQ1": "none"}
{"smiles": "COc1ccccc1N1CC(Nc2cc(CCN)ncn2)CC1=O", "stereo": "stereo not given", "SAM-II": "none", "PreQ1": "none"}
{"smiles": "OC(COc1ccc(Br)cc1)CN1CCN(c2ccccc2)CC1", "stereo": "stereo not given", "SAM-II": "none", "PreQ1": "none"}
{"smiles": "C=CCNc1nnc(-c2ccccc2)s1", "SAM-II": "none", "PreQ1": "none"}
{"smiles": "Cn1c(-c2ccc(Cl)cc2)cnc1NCc1ccc(F)cc1F", "SAM-II": "none", "PreQ1": "none"}
{"smiles": "CSc1ccc(CNn2nnnc2N)cc1", "SAM-II": "none", "PreQ1": "none"}
{"smiles": "COc1ccccc1-c1cnn2c(NCCC(C)C)cc(C)nc12", "PreQ1": "none"}
{"smiles": "Cc1cccc2[nH]c(C3CCN(Cc4cc(C#CCO)cs4)CC3)nc12", "SAM-II": "none", "PreQ1": "none"}
{"smiles": "c1ccc(CCNc2nc(-c3ccccc3)nc3ccccc23)cc1", "SAM-II": "none", "PreQ1": "none"}
{"smiles": "CC1(C)Cc2c(c(-c3ccoc3)nc3oc(C(=O)c4ccccc4)c(N)c23)CO1", "SAM-II": "none", "PreQ1": "none"}
{"smiles": "CCCc1ccc2c(N)c(C(=O)c3ccccc3)sc2n1", "SAM-II": "none", "PreQ1": "none"}
{"smiles": "CC(C)C[C@@H](N)C(=O)N(Cc1cnn(C)c1)C(C)C", "SAM-II": "none", "PreQ1": "none"}
{"smiles": "OC1(CN2CCN(c3ccc(Cl)cn3)CC2)CCCNC1", "stereo": "stereo not given", "SAM-II": "none", "PreQ1": "none"}
{"smiles": "COc1cc(OC)c(C2C(C#N)=C(N)Oc3[nH]nc(C)c32)c(OC)c1", "stereo": "stereo not given", "SAM-II": "none", "PreQ1": "none"}
{"smiles": "O=C(Nc1cccn2cnnc12)N(CC(O)c1ccccc1)C1CCCCC1", "stereo": "stereo not given", "SAM-II": "none", "PreQ1": "none"}
{"smiles": "O=c1nc(-c2ccc(C(F)(F)F)cc2)[nH]c2c1CSCC2", "SAM-II": "none", "PreQ1": "none"}
{"smiles": "CCCCCNC(=O)c1nn(-c2ccc(C)c(C)c2)nc1CO", "PreQ1": "none"}
{"smiles": "OC(CN(Cc1ccccc1)Cc1ccccc1)c1ccc2cc[nH]c2c1", "stereo": "stereo not given", "SAM-II": "none", "PreQ1": "none"}
{"smiles": "N[C@H]1CN(c2ncc(F)c(N3CCOCC3)n2)C[C@@H]1C1CC1", "SAM-II": "none", "PreQ1": "none"}
{"smiles": "Cc1c(Cl)cccc1NC(=O)N1CCN(C(=O)c2nonc2N)CC1", "PreQ1": "none"}
{"smiles": "Nc1c(C(=O)Nc2ccc(Cl)cc2F)sc2nc(-c3ccncc3)ccc12", "SAM-II": "none", "PreQ1": "none"}
{"smiles": "Nc1ccc2ccc(O)nc2n1", "SAM-II": "hit", "PreQ1": "none"}
{"smiles": "O=C(C=Cc1cccnc1)NCCCCC1CCN(C(=O)c2ccccc2)CC1", "SAM-II": "none", "PreQ1": "none"}
{"smiles": "Nc1ccnn1Cc1cccnc1", "SAM-II": "none", "PreQ1": "none"}
{"smiles": "CC(CNCc1cn(CCC(N)=O)c2ccccc12)n1cncn1", "stereo": "stereo not given", "SAM-II": "none", "PreQ1": "none"}
{"smiles": "O=C(NCC(O)c1cccc(O)c1)c1cc(=O)c2cccc(F)c2[nH]1", "stereo": "stereo not given", "SAM-II": "none", "PreQ1": "none"}
{"smiles": "CN(Cc1ccccc1)S(=O)(=O)c1ccc(-c2nc(C#N)c(NC3CC3)o2)cc1", "PreQ1": "none"}
{"smiles": "COc1ccc(F)c(C(=O)N2C[C@H]3C[C@H](O)[C@H](O)C[C@H]3C2)c1F", "SAM-II": "none", "PreQ1": "none"}
{"smiles": "CCN(C)[C@H]1CN(C(=O)CCc2scnc2C)C[C@@H]1O", "SAM-II": "none", "PreQ1": "none"}
{"smiles": "Cc1ncc2c(c1CNC(=O)CCc1n[nH]c3c1CCCC3)CCNC2", "SAM-II": "none", "PreQ1": "none"}
{"smiles": "c1ccc(-c2nc3c(c(NCCc4cscn4)n2)CCNCC3)cc1", "SAM-II": "none", "PreQ1": "none"}
{"smiles": "S=P(N1CC1)(N1CC1)N1CC1", "SAM-II": "none", "PreQ1": "none"}
{"smiles": "O=C(c1ccc2occc2c1)N1CCc2ncnc(NCCO)c2CC1", "SAM-II": "none", "PreQ1": "none"}
{"smiles": "O=C(NNCC(O)Cn1c2ccccc2c2ccccc21)c1ccccc1", "stereo": "stereo not given", "SAM-II": "none", "PreQ1": "hit"}
{"smiles": "CC(C)(C)c1n[nH]c2c1C(c1cc(Br)ccc1F)C(C#N)=C(N)O2", "stereo": "stereo not given", "SAM-II": "none", "PreQ1": "none"}
{"smiles": "N#CC1=C(N)Oc2c(c(=O)oc3ccccc23)C1c1ccc(C(F)(F)F)cc1", "stereo": "stereo not given", "SAM-II": "none", "PreQ1": "none"}
{"smiles": "N=C(N)n1c(N)nc2ccccc2c1=O", "SAM-II": "none", "PreQ1": "none"}
{"smiles": "CCN(Cc1cccc(C(=O)Nc2c(C)nn(C)c2C)c1)[C@H]1COC[C@@H]1O", "SAM-II": "none", "PreQ1": "none"}
{"smiles": "O=C(CCn1ccc(=O)[nH]c1=O)N1CC[C@@H](c2ccc3c(c2)OCO3)[C@H](O)C1", "SAM-II": "none", "PreQ1": "none"}
{"smiles": "O=C1C=C(NCCc2c[nH]cn2)CC(c2ccc(F)cc2)C1", "stereo": "stereo not given", "SAM-II": "none", "PreQ1": "none"}
{"smiles": "O=C1CNC(=O)N1CC(=O)N(Cc1ccccc1)[C@@H]1CCCC[C@H]1O", "SAM-II": "none", "PreQ1": "none"}

Once more, the final 4:

{"smiles": "CCN(Cc1cccc(C(=O)Nc2c(C)nn(C)c2C)c1)[C@H]1COC[C@@H]1O", "SAM-II": "none", "PreQ1": "none"}
{"smiles": "O=C(CCn1ccc(=O)[nH]c1=O)N1CC[C@@H](c2ccc3c(c2)OCO3)[C@H](O)C1", "SAM-II": "none", "PreQ1": "none"}
{"smiles": "O=C1C=C(NCCc2c[nH]cn2)CC(c2ccc(F)cc2)C1", "stereo": "stereo not given", "SAM-II": "none", "PreQ1": "none"}
{"smiles": "O=C1CNC(=O)N1CC(=O)N(Cc1ccccc1)[C@@H]1CCCC[C@H]1O", "SAM-II": "none", "PreQ1": "none"}